Source: patent US5086069A, “Anti-thrombotic peptide and pseudopeptide derivatives” (Rorer Pharmaceutical Corporation, priority 1990, dated 1992)
For at least one compound, name, drawing or mass did not settle the structure.

The chains behind the UniProt entries cited, without tags or fusion partners. Residues count along the entry.
UniProt P05106, 27-788: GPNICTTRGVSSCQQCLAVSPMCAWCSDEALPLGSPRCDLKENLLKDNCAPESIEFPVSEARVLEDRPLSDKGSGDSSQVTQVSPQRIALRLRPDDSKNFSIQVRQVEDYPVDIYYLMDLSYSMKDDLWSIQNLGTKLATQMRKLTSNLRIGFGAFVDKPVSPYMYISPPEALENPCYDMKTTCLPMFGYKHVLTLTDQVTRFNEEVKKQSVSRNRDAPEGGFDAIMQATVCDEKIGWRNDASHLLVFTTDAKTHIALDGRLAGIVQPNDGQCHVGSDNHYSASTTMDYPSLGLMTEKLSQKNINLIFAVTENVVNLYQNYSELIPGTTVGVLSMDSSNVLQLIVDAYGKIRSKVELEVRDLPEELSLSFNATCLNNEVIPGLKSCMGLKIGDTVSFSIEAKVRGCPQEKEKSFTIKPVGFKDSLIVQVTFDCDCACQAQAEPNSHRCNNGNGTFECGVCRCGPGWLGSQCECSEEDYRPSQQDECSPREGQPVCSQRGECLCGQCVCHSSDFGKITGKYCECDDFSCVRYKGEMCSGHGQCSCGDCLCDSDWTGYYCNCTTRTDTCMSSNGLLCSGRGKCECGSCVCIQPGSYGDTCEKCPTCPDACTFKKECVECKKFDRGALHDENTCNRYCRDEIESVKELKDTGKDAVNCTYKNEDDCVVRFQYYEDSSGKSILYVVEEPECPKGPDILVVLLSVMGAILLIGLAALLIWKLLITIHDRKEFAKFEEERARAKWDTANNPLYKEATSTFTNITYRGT
UniProt P08514, 32-887 limits assumed: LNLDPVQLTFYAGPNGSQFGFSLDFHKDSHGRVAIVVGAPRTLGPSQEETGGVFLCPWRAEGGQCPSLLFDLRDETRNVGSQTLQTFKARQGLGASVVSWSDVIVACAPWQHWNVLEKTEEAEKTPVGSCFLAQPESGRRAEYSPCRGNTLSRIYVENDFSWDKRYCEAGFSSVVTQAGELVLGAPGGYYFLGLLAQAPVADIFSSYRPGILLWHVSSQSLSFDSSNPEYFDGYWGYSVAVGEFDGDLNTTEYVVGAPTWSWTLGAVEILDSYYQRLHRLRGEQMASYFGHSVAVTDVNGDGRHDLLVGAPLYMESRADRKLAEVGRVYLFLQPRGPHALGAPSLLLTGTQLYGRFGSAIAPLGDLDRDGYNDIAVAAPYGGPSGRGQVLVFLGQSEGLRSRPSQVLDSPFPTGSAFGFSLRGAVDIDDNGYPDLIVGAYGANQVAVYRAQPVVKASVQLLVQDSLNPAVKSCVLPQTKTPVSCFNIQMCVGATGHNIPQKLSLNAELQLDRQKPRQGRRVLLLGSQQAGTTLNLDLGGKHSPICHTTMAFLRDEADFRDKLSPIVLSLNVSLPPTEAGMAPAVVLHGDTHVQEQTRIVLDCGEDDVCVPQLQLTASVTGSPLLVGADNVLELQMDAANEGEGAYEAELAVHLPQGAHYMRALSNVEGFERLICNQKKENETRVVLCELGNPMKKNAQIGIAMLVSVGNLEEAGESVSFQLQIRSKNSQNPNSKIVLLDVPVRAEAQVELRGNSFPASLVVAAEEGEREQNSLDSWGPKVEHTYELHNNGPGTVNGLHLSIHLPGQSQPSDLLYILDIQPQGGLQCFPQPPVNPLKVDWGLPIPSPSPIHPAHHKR
UniProt P08514, 891-1039 limits assumed: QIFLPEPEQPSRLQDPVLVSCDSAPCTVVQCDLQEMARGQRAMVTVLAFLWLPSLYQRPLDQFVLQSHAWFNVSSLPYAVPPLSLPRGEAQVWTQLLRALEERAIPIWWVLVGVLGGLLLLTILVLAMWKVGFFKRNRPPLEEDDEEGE

Molecular target: T1, fibrinogen binding to thrombin-stimulated platelets (GPIIb/IIIa fibrinogen receptor) (Homo sapiens, UniProt P05106+P08514)
T1 construct: endogenous in cells; host or cells: washed platelets stimulated with human alpha-thrombin
Experiment: Inhibition of Radiolabeled (125I) Fibrinogen Binding Assay
Details: no inhibition at concentrations of 50 μM or lower; read-out: Inhibition of 125I-Fibrinogen (binding to) Platelet IC50
Experimental: I. Inhibition of Radiolabeled (^125 I) Fibrinogen Binding Assay, which is essentially based on the method described in Proc. Natl. Acad. Sci. USA Vol. 83, pp. 5708-5712, Aug. 1986, and is as follows.
Platelets are washed free of plasma constituents by the albumin density-gradient technique. In each experimental mixture platelets in modified Tyrode's buffer are stimulated with human α-thrombin at 22°-25° C. for 10 minutes (3.125×10" platelets per liter and thrombin at […]). Hirudin is then added at a 25-fold excess for 5 minutes before addition of the radiolabeled ligand and any competing ligand. After these additions, the final platelet count in the mixture is 1×10"/liter. After incubation for an additional 30 minutes at 22°-25° C., bound and free ligand are separated by centrifuging 50 μl of the mixture through 300 μl of 20% sucrose at 12,000 xg for 4 minutes. The platelet pellet is then separated from the rest of the mixture to determine platelet-bound radioactivity. Nonspecific binding is measured in mixtures containing an excess of unlabeled ligand. When binding curves are analyzed by Scatchard analysis, nonspecific binding is derived as a fitted parameter from the binding isotherm by means of a computerized program. […]

**Q.** With `CC(C)[C@H](NC(=O)[C@H](CC(=O)O)NC(=O)c1ccc(NC(=N)N)cc1)C(=O)O` [4-Guanidinobenzoyl-L-aspartyl-L-valine, N-(4-quanidinobenzoyl)-L-aspartyl-L-valine] as the compound, how does the IC50 read?
**A.** The IC50 was ≥ 50 µM.
